# Measurements taken from PubChem BioAssay AID1632 (University of Pittsburgh Molecular Library Screening Center, 2009).
# The other results are listed elsewhere or left out. Further columns of the screen follow, without active or inactive calls.
# Test system: hexokinase 1 [Trypanosoma brucei]
# Assay: TbHK1 enzyme inhibition, concentration series – biochemical, IC50, dose response (AID 1632)
# Conditions: recombinant TbHK1 enzyme assay, absorbance read-out, at 100 µM, stronger effect = higher value
smiles,measurement,value
O=c1c2ccccc2sn1-c1nccs1,inhibition,13.4%
